Experimental data taken from PubChem BioAssay AID493014 (National Center for Advancing Translational Sciences (NCATS), 2011).
The list shows a part of the results. The main result of the screen is listed elsewhere. These columns were measured beside it and carry no call. Most of these compounds were active or inconclusive in the main read-out, so they are no random draw. The note in brackets gives the kind of curve behind each potency; many fits are weak.

Assay: qHTS Assay to Find Inhibitors of Chronic Active B-Cell Receptor Signaling
Conditions: ABC-DLBCL IkBa-CBG/CBR reporter, luminescence ratio (green luciferase fused to IkBa over red control in TMD8 lymphoma cells), 4 h
Method in brief: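 Cell line TMD8 (human ABC DLBCL), stably expressing tet-inducible CBG68-IkBa fusion and CBR; IMDM/0.5% FBS; cpd up to 46 uM; dox induction, 4 h, 37C/5% CO2; dual luminescence; green/red ratio; MG132 control.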

[1] = measured here: CBR red luminescence, cell number
[2] = measured here: IkBa-CBG green luminescence

SMILES	AC50 [1]	AC50 [2]
COc1ccc(NC(=O)CCCC(=O)c2ccccc2)cc1	35.5 µM [rising, single point]	
Cc1ccn2c(NC(=O)C(C)(C)Oc3ccc(Cl)cc3)c(-c3cccs3)nc2c1	5.8 µM [rising, partial curve, poor fit]	
COc1ccc(C(=O)N/N=C/c2ccc(OC)c(CN3CCCc4ccccc43)c2)cc1	16.4 µM [falling, single point]	
CCCc1nnc(NC(=S)Nc2ccccc2)s1	3.55 µM [falling, full curve]	7.08 µM [falling, partial curve]
CCOC(=O)C1=NNC2(c3ccc(Cl)cc3)C(=O)N(c3ccc(C)cc3)C(=O)C12 (stereo unspecified)	9.2 µM [rising, partial curve, poor fit]	
Cc1ccccc1C(=O)c1cccn1CC(=O)NC(C)c1ccc2c(c1)OCCO2 (stereo unspecified)	25.1 µM [falling, single point]	
CCOC(=O)c1nc2c(ccc3ccccc32)cc1C	17.8 µM [rising, partial curve, poor fit]	
NC(N)=Nc1nc(-c2ccccc2)c2cc(F)ccc2n1	15.8 µM [falling, partial curve, poor fit]	
Clc1ccccc1OCc1nn2c(-c3ccncc3)nnc2s1		3.66 µM [rising, partial curve, poor fit]
CC(C)CC(=O)NC(=S)Nc1ccc(N2CCN(C(=O)c3cccs3)CC2)cc1	0.0891 µM [falling, full curve, poor fit]	
N#Cc1c(C(F)(F)F)cc(-c2ccco2)nc1SCc1ccncc1	0.562 µM [falling, partial curve, poor fit]	
O=[N+]([O-])c1ccc(Nc2ccccc2O)c2nonc12	35.5 µM [falling, single point]	
CCCC12CN3CC(C)(CN(C1)C31CCCCC1)C2=O	25.9 µM [rising, single point]	
O=C(NCCN1C(=O)S/C(=C\c2ccc(Cl)c([N+](=O)[O-])c2)C1=O)C1=COCCO1	20.6 µM [falling, partial curve]	
O=C(NC1(C(=O)NC2CCCCC2)CCCCC1)c1ccc2c(c1)OCO2	1.84 µM [rising, full curve, poor fit]	
CN(C)CCCN(C(=O)COc1ccccc1)c1nc2ccc(F)cc2s1	35.5 µM [falling, single point]	
CN1CCN(c2ccccc2NC(=O)c2ccc(N3CCCCC3)c([N+](=O)[O-])c2)CC1	8.91 µM [falling, partial curve, poor fit]	
COc1ccc(S(=O)(=O)N2CCCCCC2)cc1C(=O)Nc1cccc(C)n1	8.91 µM [falling, partial curve]	
COc1ccc(C(=O)NC(C)CCc2ccccc2)cc1 (stereo unspecified)	5.01 µM [rising, full curve]	
CCC(=NCc1ccco1)c1c(C(F)(F)F)[nH]n(-c2nc3ccccc3s2)c1=O	8.2 µM [falling, partial curve]	
COc1cc(N2CCCC2)c(OC)cc1/C=C1/NC(=S)NC1=O	20.6 µM [rising, single point]	
CC(C)OCCCNC(=O)CCC(=O)NNc1nc2ccccc2c2nc(-c3ccccc3)nn12	6.51 µM [rising, single point]	

SMILES	AC50 [1]	AC50 [2]
CC(NC(=O)C1CC12CCC2)c1ccccc1 (stereo unspecified)	0.366 µM [rising, full curve, poor fit]	
CC(C)(C)[C@@H]1COC(=O)[C@H](Cc2ccc(F)cc2)C/C=C\C[C@@H](CC(=O)N(CCO)Cc2ccccc2)C(=O)N1	6.51 µM [falling, single point]	
CN1CCN(C(=O)c2cc(-c3ccccc3)on2)CC1	32.6 µM [falling, single point]	
Cc1cc(/C=C2\SC(=O)NC2=O)c(C)n1-c1ccc(N(C)C)cc1	12.6 µM [rising, partial curve]	
CCc1cc2c(N3CCN(c4nnc(CC)s4)CC3)ncnc2s1	11.2 µM [falling, single point]	
O=C(NNc1ccccc1Br)C(O)(c1cccc(C(F)(F)F)c1)c1cccc(C(F)(F)F)c1	29.1 µM [falling, single point]	
COc1ccc(N2CCN(CCC(N)=O)CC2)cc1	18.4 µM [rising, single point]	
CC1Cc2ccccc2N1C(=O)CSc1nnc(Cc2ccccc2)n1CCc1ccccc1 (stereo unspecified)	32.6 µM [falling, single point]	
Cc1c(Cl)cccc1NC(=S)NN	35.5 µM [falling, single point]	
Cc1ccc(S(=O)(=O)NC(CN2CCOCC2)=NCCNS(=O)(=O)c2ccccc2)cc1	29.1 µM [falling, single point]	
COc1ccc(NC(=O)/C(Cl)=C(/Cl)S(=O)Cc2ccccc2Cl)cn1 (stereo unspecified)	3.98 µM [falling, full curve]	
CCOc1ccc(OCCNC(=O)c2cc(C3CC3)nc3c2cnn3C(C)C)cc1	4.11 µM [falling, partial curve]	
CCOC(=O)c1sc(NC(=O)c2ccccc2OC)nc1C	0.058 µM [falling, full curve]	
Cc1occc1-c1nnc(SCC(=O)Nc2ccccn2)o1	35.5 µM [falling, single point]	
Cc1ccc(C(=O)OCC(=O)c2ccc(Cl)s2)s1	16.4 µM [rising, partial curve]	
O=C(COc1ccc(C(=O)c2ccc(F)cc2)cc1)Nc1cccc(S(=O)(=O)N2CCOCC2)c1	16.4 µM [falling, single point]	
O=C(c1cn(-c2ccccc2)nc1-c1ccccc1)N1CCOCC1	14.1 µM [rising, partial curve, poor fit]	
Cc1ccccc1Nc1cc(C(=O)NCC2CCCO2)c2ccccc2n1 (stereo unspecified)	7.94 µM [falling, partial curve]	
O=C1C(C=NCc2ccco2)=C(O)c2ccccc21	35.5 µM [falling, single point]	
COc1ccc(-c2cc3nc(C)cc(NCCO)n3n2)cc1	35.5 µM [falling, single point]	
O=C(CSc1nnnn1Cc1ccccc1)Nc1ccccc1	3.55 µM [rising, partial curve, poor fit]	
O=C(O)C=C1CCN(c2ncc(C(F)(F)F)cc2Cl)CC1	12.6 µM [falling, partial curve]	

Part of the list above, in markdown.

| SMILES | AC50 [1] | AC50 [2] |
| --- | --- | --- |
| O=C(NNc1ccccc1Br)C(O)(c1cccc(C(F)(F)F)c1)c1cccc(C(F)(F)F)c1 | 29.1 µM [falling, single point] |  |
| COc1ccc(N2CCN(CCC(N)=O)CC2)cc1 | 18.4 µM [rising, single point] |  |
| CC1Cc2ccccc2N1C(=O)CSc1nnc(Cc2ccccc2)n1CCc1ccccc1 (stereo unspecified) | 32.6 µM [falling, single point] |  |
| Cc1c(Cl)cccc1NC(=S)NN | 35.5 µM [falling, single point] |  |
| Cc1ccc(S(=O)(=O)NC(CN2CCOCC2)=NCCNS(=O)(=O)c2ccccc2)cc1 | 29.1 µM [falling, single point] |  |
| COc1ccc(NC(=O)/C(Cl)=C(/Cl)S(=O)Cc2ccccc2Cl)cn1 (stereo unspecified) | 3.98 µM [falling, full curve] |  |
| CCOc1ccc(OCCNC(=O)c2cc(C3CC3)nc3c2cnn3C(C)C)cc1 | 4.11 µM [falling, partial curve] |  |
| CCOC(=O)c1sc(NC(=O)c2ccccc2OC)nc1C | 0.058 µM [falling, full curve] |  |
| Cc1occc1-c1nnc(SCC(=O)Nc2ccccn2)o1 | 35.5 µM [falling, single point] |  |
| Cc1ccc(C(=O)OCC(=O)c2ccc(Cl)s2)s1 | 16.4 µM [rising, partial curve] |  |
| O=C(COc1ccc(C(=O)c2ccc(F)cc2)cc1)Nc1cccc(S(=O)(=O)N2CCOCC2)c1 | 16.4 µM [falling, single point] |  |
| O=C(c1cn(-c2ccccc2)nc1-c1ccccc1)N1CCOCC1 | 14.1 µM [rising, partial curve, poor fit] |  |
| Cc1ccccc1Nc1cc(C(=O)NCC2CCCO2)c2ccccc2n1 (stereo unspecified) | 7.94 µM [falling, partial curve] |  |
| O=C1C(C=NCc2ccco2)=C(O)c2ccccc21 | 35.5 µM [falling, single point] |  |
| COc1ccc(-c2cc3nc(C)cc(NCCO)n3n2)cc1 | 35.5 µM [falling, single point] |  |

Additional structures:

SMILES	AC50 [1]	AC50 [2]
COc1cc(C(c2c(C)[nH][nH]c2=O)c2c(C)[nH][nH]c2=O)cc(OC)c1OC	35.5 µM [falling, single point]	
O=c1[nH]n(-c2ccccn2)c(=O)c2ccccc12	11.2 µM [rising, partial curve]	
O=C(c1sc2cc([N+](=O)[O-])ccc2c1Cl)N1CCCCC1	4.61 µM [falling, full curve, poor fit]	
O=C(O)CC(SCC(=O)Nc1ccccc1)C(=O)O (stereo unspecified)	0.708 µM [rising, full curve, poor fit]	
Cc1ccnc(NC(=O)c2ccc(S(=O)(=O)N3CCCCC3)cc2)c1	9.2 µM [falling, partial curve]	
COc1cccc(C(=O)Nc2nc(-c3ccccc3)c(-c3ccccc3)o2)c1	1.84 µM [falling, full curve]	
CCOC(=O)c1nnn(-c2nonc2N)c1-c1ccc(F)cc1	0.631 µM [rising, partial curve, poor fit]	
COc1ccccc1NC(=O)CSc1nc(N)c(-c2ccccc2)c(=O)[nH]1	7.94 µM [falling, partial curve]	
COc1cccc(C(=O)C(C#N)=C(SC)SC)c1	20 µM [falling, single point]	
O=c1c2oc3ccccc3c2ncn1Cc1ccccc1F	0.891 µM [falling, full curve, poor fit]	
CC(=O)Nc1ccc(S(=O)(=O)N2CCC(c3nc4ccccc4[nH]3)CC2)cc1	14.6 µM [rising, single point]	
c1ccc(-c2ccc(OCCCNC3CCCC3)cc2)cc1	22.4 µM [falling, single point]	
O=C(c1cc(S(=O)(=O)N2CCOCC2)ccc1Cl)N1CCC(Cc2ccccc2)CC1	20.6 µM [falling, single point]	
COc1ccc(OCC(=O)N/N=C(\C)c2ccc(-n3ccnc3)cc2)cc1	0.651 µM [rising, partial curve, poor fit]	
CC(=O)Nc1cccc(C(=O)OCC(=O)Nc2nnc(-c3ccccc3)o2)c1	2.06 µM [rising, partial curve, poor fit]	
O=C(O)CC(SCC(=O)Nc1ccc(Cl)c(S(=O)(=O)N2CCOCC2)c1)C(=O)O (stereo unspecified)	1.26 µM [falling, full curve, poor fit]	
Cc1ccc(SCCC(=O)Nc2cccc(N(C)S(C)(=O)=O)c2)cc1	13 µM [rising, partial curve, poor fit]	
COc1ccc(C)cc1S(=O)(=O)Nc1cccnc1	6.31 µM [falling, partial curve, poor fit]	
COc1cc(/C=N/Nc2ccc(Cl)c(C(=O)O)c2)ccc1OC(=O)c1cccs1	7.94 µM [falling, partial curve]	
Cc1oc2cc(O)ccc2c(=O)c1Oc1ccc2ccccc2c1	11.2 µM [falling, partial curve, poor fit]	
O=C(NCc1ccccc1Cl)c1ccccc1Oc1ccccc1	3.66 µM [rising, full curve]	
